The target in the assay is T1, Caveolin-3 (rat (endogenous in rat bladder)) (UniProt P51638).
T1 sequence: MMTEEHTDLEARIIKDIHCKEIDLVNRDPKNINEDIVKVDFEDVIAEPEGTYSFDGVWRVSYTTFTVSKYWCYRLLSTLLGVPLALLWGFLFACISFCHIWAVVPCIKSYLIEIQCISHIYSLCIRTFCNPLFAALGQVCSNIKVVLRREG
As to the kind of experiment: co-IP; anti-Cav-3 antibody immobilised on magnetic beads, incubated with normal rat bladder lysate for 1 hour; Western blot with anti-HCN1-4 antibodies; nonimmune IgG as negative control. In general terms: In western blotting, separated proteins are transferred to a membrane and probed.

These are yes or no findings as the source states them, for the method shown. In cells and extracts the contact can be indirect. Some results given as binding are weak or reduced against the parent protein; the word gives no strength.

This is an account of results in publication PMC4848475.

B1: hyperpolarization-activated cyclic nucleotide-gated channel 4 (protein, UniProt Q9JKA7 1-1198)
chain: MDKLPPSMRKRLYSLPQQVGAKAWIMDEEEDGEEEGAGGLQDPSRRSIRLRPLPSPSPSVAAGCSESRGAALGAADSEGPGRSAGKSSTNGDCRRFRGSLASLGSRGGGSGGAGGGSSLGHLHDSAEERRLIAAEGDASPGEDRTPPGLATEPERPGAAAQPAASPPPQQPPQPASASCEQPSADTAIKVEGGAAASDQILPEAEVRLGQSGFMQRQFGAMLQPGVNKFSLRMFGSQKAVEREQERVKSAGFWIIHPYSDFRFYWDLTMLLLMVGNLIIIPVGITFFKDENTTPWIVFNVVSDTFFLIDLVLNFRTGIVVEDNTEIILDPQRIKMKYLKSWFVVDFISSIPVDYIFLIVETRIDSEVYKTARALRIVRFTKILSLLRLLRLSRLIRYIHQWEEIFHMTYDLASAVVRIVNLIGMMLLLCHWDGCLQFLVPMLQDFPHDCWVSINGMVNNSWGKQYSYALFKAMSHMLCIGYGRQAPVGMSDVWLTMLSMIVGATCYAMFIGHATALIQSLDSSRRQYQEKYKQVEQYMSFHKLPPDTRQRIHDYYEHRYQGKMFDEESILGELSEPLREEIINFNCRKLVASMPLFANADPNFVTSMLTKLRFEVFQPGDYIIREGTIGKKMYFIQHGVVSVLTKGNKETKLADGSYFGEICLLTRGRRTASVRADTYCRLYSLSVDNFNEVLEEYPMMRRAFETVALDRLDRIGKKNSILLHKVQHDLNSGVFNYQENEIIQQIVRHDREMAHCAHRVQAAASATPTPTPVIWTPLIQAPLQAAAATTSVAIALTHHPRLPAAIFRPPPGPGLGNLGAGQTPRHPRRLQSLIPSALGSASPASSPSQVDTPSSSSFHIQQLAGFSAPPGLSPLLPSSSSSPPPGACSSPPAPTPSTSTAATTTGFGHFHKALGGSLSSSDSPLLTPLQPGARSPQAAQPPPPLPGARGGLGLLEHFLPPPPSSRSPSSSPGQLGQPPGELSPGLAAGPPSTPETPPRPERPSFMAGASGGASPVAFTPRGGLSPPGHSPGPPRTFPSAPPRASGSHGSLLLPPASSPPPPQVPQRRGTPPLTPGRLTQDLKLISASQPALPQDGAQTLRRASPHSSGESMAAFSLYPRAGGGSGSSGGLGPPGRPYGAIPGQHVTLPRKTSSGSLPPPLSLFGARAASSGGPPLTAAPQREPGARSEPVRSKLPSNL
Consider B1, for which the binding entry is reported as “binds”.

B2: hyperpolarization-activated cyclic nucleotide-gated channel 2 (protein, UniProt Q9JKA9 1-863)
chain: MDARGGGGRPGDSPGATPAPGPPPPPPPPAPPQPQPPPAPPPNPTTPSHPESADEPGPRSRLCSRDSSCTPGAAKGGANGECGRGEPQCSPEGPARGPKVSFSCRGAASGPAAAEEAGSEEAGPAGEPRGSQASFLQRQFGALLQPGVNKFSLRMFGSQKAVEREQERVKSAGAWIIHPYSDFRFYWDFTMLLFMVGNLIIIPVGITFFKDETTAPWIVFNVVSDTFFLMDLVLNFRTGIVIEDNTEIILDPEKIKKKYLRTWFVVDFVSSIPVDYIFLIVEKGIDSEVYKTARALRIVRFTKILSLLRLLRLSRLIRYIHQWEEIFHMTYDLASAVMRICNLISMMLLLCHWDGCLQFLVPMLQDFPSDCWVSINNMVNHSWSELYSFALFKAMSHMLCIGYGRQAPESMTDIWLTMLSMIVGATCYAMFIGHATALIQSLDSSRRQYQEKYKQVEQYMSFHKLPADFRQKIHDYYEHRYQGKMFDEDSILGELNGPLREEIVNFNCRKLVASMPLFANADPNFVTAMLTKLKFEVFQPGDYIIREGTIGKKMYFIQHGVVSVLTKGNKEMKLSDGSYFGEICLLTRGRRTASVRADTYCRLYSLSVDNFNEVLEEYPMMRRAFETVAIDRLDRIGKKNSILLHKVQHDLSSGVFNNQENAIIQEIVKYDREMVQQAELGQRVGLFPPPPPPQVTSAIATLQQAVAMSFCPQVARPLVGPLALGSPRLVRRAPPGPLPPAASPGPPAASPPAAPSSPRAPRTSPYGVPGSPATRVGPALPARRLSRASRPLSASQPSLPHGAPAPSPAASARPASSSTPRLGPAPTTRTAAPSPDRRDSASPGAASGLDPLDSARSRLSSNL
As to B2, the binding entry was “binds”.

B3: hyperpolarization-activated cyclic nucleotide-gated channel 3 (protein, UniProt Q9JKA8 1-780)
chain: MEEEARPAVGDGEAATPARETPPAAPAQARAASGGVPESAPEPKRRQLGTLLQPTVNKFSLRVFGSHKAVEIEQERVKSAGAWIIHPYSDFRFYWDLIMLLLMVGNLIVLPVGITFFKEENSPPWIVFNVLSDTFFLLDLVLNFRTGIVVEEGAEILLAPRAIRTRYLRTWFLVDLISSIPVDYIFLVVELEPRLDAEVYKTARALRIVRFTKILSLLRLLRLSRLIRYMHQWEEIFHMTYDLASAVVRIFNLIGMMLLLCHWDGCLQFLVPMLQDFPSDCWVSMNRMVNHSWGRQYSHALFKAMSHMLCIGYGQQAPVGMPDVWLTMLSMIVGATCYAMFIGHATALIQSLDSSRRQYQEKYKQVEQYMSFHKLPADTRQRIHEYYEHRYQGKMFDEESILGELSEPLREEIINFTCRGLVAHMPLFAHADPSFVTAVLTKLRFEVFQPGDLVVREGSVGRKMYFIQHGLLSVLARGARDTRLTDGSYFGEICLLTRGRRTASVRADTYCRLYSLSVDHFNAVLEEFPMMRRAFETVAMDRLRRIGKKNSILQRKRSEPSPGSSSGGVMEQHLVQHDRDMARGIRGLAPGTGARLSGKPVLWEPLVHAPLQAAAVTSNVAIALTHQRGPLPLSPDSPATLLARSARRSAGSPASPLVPVRAGPLLARGPWASTSRLPAPPARTLHASLSRTGRSQVSLLGPPPGGGGRRLGPRGRPLSASQPSLPQRATGDGSPRRKGSGSERLPPSGLLAKPPGTVQPSRSSVPEPVTPRGPQISANM
For B3, the binding result was “binds”.

B4: hyperpolarization-activated cyclic nucleotide-gated channel 1 (protein, UniProt Q9JKB0 1-902)
chain: MEGGGKPNSASNSRDDGNSVYPSKAPATGPAAADKRLGTPPGGGAAGKEHGNSVCFKVDGGGGEEPAGSFEDAEGPRRQYGFMQRQFTSMLQPGVNKFSLRMFGSQKAVEKEQERVKTAGFWIIHPYSDFRFYWDLIMLIMMVGNLVIIPVGITFFTEQTTTPWIIFNVASDTVFLLDLIMNFRTGTVNEDSSEIILDPKVIKMNYLKSWFVVDFISSIPVDYIFLIVEKGMDSEVYKTARALRIVRFTKILSLLRLLRLSRLIRYIHQWEEIFHMTYDLASAVVRIFNLIGMMLLLCHWDGCLQFLVPLLQDFPPDCWVSLNEMVNDSWGKQYSYALFKAMSHMLCIGYGAQAPVSMSDLWITMLSMIVGATCYAMFVGHATALIQSLDSSRRQYQEKYKQVEQYMSFHKLPADMRQKIHDYYEHRYQGKIFDEENILSELNDPLREEIVNFNCRKLVATMPLFANADPNFVTAMLSKLRFEVFQPGDYIIREGAVGKKMYFIQHGVAGVITKSSKEMKLTDGSYFGEICLLTKGRRTASVRADTYCRLYSLSVDNFNEVLEEYPMMRRAFETVAIDRLDRIGKKNSILLQKFQKDLNTGVFNNQENEILKQIVKHDREMVQAIPPINYPQMTALNCTSSTTTPTSRMRTQSPPVYTATSLSHSNLHSPSPSTQTPQPSAILSPCSYTTAVCSPPIQSPLATRTFHYASPTASQLSLMQQPQPQLQQSQVQQTQPQPQPQPQQPQQQQQQQQQQQQQQQQQQQQQQPQTPGSSTPKNEVHKSTQALHNTNLTREVRPLSASQPSLPHEVSTMISRPHPTVGESLASIPQPMATVHSTGLQAGSRSTVPQRVTLFRQMSSGAIPPNRGVPPAPPPPAAVQRESPSVLNKDPDAEKPRFASNL
Regarding B4, the binding result is “binds”.
